PubChem BioAssay AID1224830 | NIAID, 2016
In all, the deposit lists about 18,000 reagents; below is a part drawn at random. About 2,900 of them (16%) count as active. 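Calls are made per well; low scores hint the gene aids the LPS response, high scores that it dampens it.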 Repeated entries: four replicate wells of each siRNA pool.

Assay: 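Regulators of TLR4 signalling towards TNF-alpha in macrophage-like cells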 (primary screen)
Cell system: human THP-1 monocytic leukaemia cells, TNF dual-luciferase reporter clone, PMA-differentiated to macrophage-like cells
Reagents: siRNA pool against human genes, 50 nM
Duration: LPS for 4 h, given about 3 days after siRNA transfection
Challenge: bacterial LPS (TLR4 ligand), 10 ng/ml
Read-out: 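Ratio of firefly to renilla light, scaled to the plate median and expressed as a robust z-score per replicate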
Scale: TNF reporter robust z-score: higher = stronger TNF reporter response to LPS
Call rule: 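Each well counts as active if its z-score is over 2.8 or under -1.5; controls are left without a call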

gene symbol | TNF reporter robust z-score | activity call
BBC3 (BCL2 binding component 3) | 2 | inactive
BBC3 (BCL2 binding component 3) | 3.05 | active
BBC3 (BCL2 binding component 3) | 1.69 | inactive
BBC3 (BCL2 binding component 3) | 0.91 | inactive
PBDC1 (polysaccharide biosynthesis domain containing 1) | -1.67 | active
PBDC1 (polysaccharide biosynthesis domain containing 1) | -0.98 | inactive
PBDC1 (polysaccharide biosynthesis domain containing 1) | -0.35 | inactive
PBDC1 (polysaccharide biosynthesis domain containing 1) | 0.2 | inactive
LRRC75B (leucine rich repeat containing 75B) | -0.5 | inactive
LRRC75B (leucine rich repeat containing 75B) | 0.78 | inactive
LRRC75B (leucine rich repeat containing 75B) | -0.57 | inactive
LRRC75B (leucine rich repeat containing 75B) | 1.42 | inactive
CMKLR1 (chemerin chemokine-like receptor 1) | -0.07 | inactive
CMKLR1 (chemerin chemokine-like receptor 1) | -0.05 | inactive
CMKLR1 (chemerin chemokine-like receptor 1) | -0.71 | inactive
CMKLR1 (chemerin chemokine-like receptor 1) | -0.35 | inactive
SLC25A11 | 1 | inactive
SLC25A11 | 1.74 | inactive
SLC25A11 | 1.09 | inactive
SLC25A11 | 2.39 | inactive
ATF4 (activating transcription factor 4) | 1.51 | inactive
ATF4 (activating transcription factor 4) | 3.22 | active
ATF4 (activating transcription factor 4) | -0.05 | inactive
ATF4 (activating transcription factor 4) | 1.83 | inactive
BCL7A (BAF chromatin remodeling complex subunit BCL7A) | -0.6 | inactive
BCL7A (BAF chromatin remodeling complex subunit BCL7A) | 0.02 | inactive
BCL7A (BAF chromatin remodeling complex subunit BCL7A) | -0.4 | inactive
BCL7A (BAF chromatin remodeling complex subunit BCL7A) | -0.95 | inactive
PLAC4 (placenta associated 4) | -0.96 | inactive
PLAC4 (placenta associated 4) | -1.04 | inactive
PLAC4 (placenta associated 4) | -0.89 | inactive
TXLNG (taxilin gamma) | -1.18 | inactive
TXLNG (taxilin gamma) | -0.95 | inactive
TXLNG (taxilin gamma) | -0.3 | inactive
TXLNG (taxilin gamma) | 0.35 | inactive
TRIM38 (tripartite motif containing 38) | 0.23 | inactive
TRIM38 (tripartite motif containing 38) | -0.91 | inactive
TRIM38 (tripartite motif containing 38) | -0.67 | inactive
TRIM38 (tripartite motif containing 38) | 0.84 | inactive
MYO1D (myosin ID) | 1.67 | inactive
MYO1D (myosin ID) | 2.32 | inactive
MYO1D (myosin ID) | 1.68 | inactive
MYO1D (myosin ID) | 1.78 | inactive
ATOH8 (atonal bHLH transcription factor 8) | 0.86 | inactive
ATOH8 (atonal bHLH transcription factor 8) | 1.47 | inactive
ATOH8 (atonal bHLH transcription factor 8) | 0.63 | inactive
ATOH8 (atonal bHLH transcription factor 8) | 0.8 | inactive
GNG3 (G protein subunit gamma 3) | -1.11 | inactive
GNG3 (G protein subunit gamma 3) | -0.72 | inactive
GNG3 (G protein subunit gamma 3) | -0.67 | inactive
GNG3 (G protein subunit gamma 3) | -0.91 | inactive
PCDHB8 (protocadherin beta 8) | -1.25 | inactive
PCDHB8 (protocadherin beta 8) | -0.74 | inactive
PCDHB8 (protocadherin beta 8) | -0.8 | inactive
PCDHB8 (protocadherin beta 8) | -0.96 | inactive
TXNDC8 (thioredoxin domain containing 8) | 1.37 | inactive
TXNDC8 (thioredoxin domain containing 8) | 2.41 | inactive
TXNDC8 (thioredoxin domain containing 8) | 1.57 | inactive
TXNDC8 (thioredoxin domain containing 8) | 1.11 | inactive

9 entries from above, arranged by “TNF reporter robust z-score”, high to low:
gene symbol | TNF reporter robust z-score | activity call
BBC3 (BCL2 binding component 3) | 1.69 | inactive
BBC3 (BCL2 binding component 3) | 0.91 | inactive
LRRC75B (leucine rich repeat containing 75B) | 0.78 | inactive
PBDC1 (polysaccharide biosynthesis domain containing 1) | 0.2 | inactive
PBDC1 (polysaccharide biosynthesis domain containing 1) | -0.35 | inactive
LRRC75B (leucine rich repeat containing 75B) | -0.5 | inactive
LRRC75B (leucine rich repeat containing 75B) | -0.57 | inactive
PBDC1 (polysaccharide biosynthesis domain containing 1) | -0.98 | inactive
PBDC1 (polysaccharide biosynthesis domain containing 1) | -1.67 | active

The list goes on:
gene symbol | TNF reporter robust z-score | activity call
CD177 (CD177 molecule) | -0.15 | inactive
CD177 (CD177 molecule) | -0.51 | inactive
CD177 (CD177 molecule) | -0.09 | inactive
CD177 (CD177 molecule) | 0.26 | inactive
NUDT14 (nudix hydrolase 14) | 1.4 | inactive
NUDT14 (nudix hydrolase 14) | 1.59 | inactive
NUDT14 (nudix hydrolase 14) | -0.32 | inactive
NUDT14 (nudix hydrolase 14) | 0.17 | inactive
KLF14 (KLF transcription factor 14) | 2.3 | inactive
KLF14 (KLF transcription factor 14) | 1.15 | inactive
KLF14 (KLF transcription factor 14) | 2.24 | inactive
KLF14 (KLF transcription factor 14) | 1.59 | inactive
KGD4 (alpha-ketoglutarate dehydrogenase subunit 4) | -0.7 | inactive
KGD4 (alpha-ketoglutarate dehydrogenase subunit 4) | -0.65 | inactive
KGD4 (alpha-ketoglutarate dehydrogenase subunit 4) | -0.97 | inactive
KGD4 (alpha-ketoglutarate dehydrogenase subunit 4) | -0.63 | inactive
REXO5 (RNA exonuclease 5) | -0.45 | inactive
REXO5 (RNA exonuclease 5) | -0.52 | inactive
REXO5 (RNA exonuclease 5) | -0.67 | inactive
REXO5 (RNA exonuclease 5) | 0.09 | inactive
TNFSF8 (TNF superfamily member 8) | -0.68 | inactive
TNFSF8 (TNF superfamily member 8) | 0.29 | inactive
TNFSF8 (TNF superfamily member 8) | -0.74 | inactive
TNFSF8 (TNF superfamily member 8) | -0.59 | inactive
AACS (acetoacetyl-CoA synthetase) | -1.05 | inactive
AACS (acetoacetyl-CoA synthetase) | -0.14 | inactive
AACS (acetoacetyl-CoA synthetase) | -0.35 | inactive
AACS (acetoacetyl-CoA synthetase) | 0 | inactive
CDK5RAP1 (CDK5RAP1 mitochondrial tRNA methylthiotransferase) | 0.38 | inactive
CDK5RAP1 (CDK5RAP1 mitochondrial tRNA methylthiotransferase) | 0.93 | inactive
CDK5RAP1 (CDK5RAP1 mitochondrial tRNA methylthiotransferase) | -0.76 | inactive
CDK5RAP1 (CDK5RAP1 mitochondrial tRNA methylthiotransferase) | -0.36 | inactive
NHLH2 (nescient helix-loop-helix 2) | -1.42 | inactive
NHLH2 (nescient helix-loop-helix 2) | -1.58 | active
NHLH2 (nescient helix-loop-helix 2) | -1.45 | inactive
SEC14L2 (SEC14 like lipid binding 2) | -1.5 | inactive
SEC14L2 (SEC14 like lipid binding 2) | -1.01 | inactive
SEC14L2 (SEC14 like lipid binding 2) | -1.29 | inactive
SEC14L2 (SEC14 like lipid binding 2) | -0.77 | inactive
NUP85 (nucleoporin 85) | 0.27 | inactive
NUP85 (nucleoporin 85) | 0.92 | inactive
NUP85 (nucleoporin 85) | 0.5 | inactive
NUP85 (nucleoporin 85) | -0.55 | inactive
KIRREL3 (kirre like nephrin family adhesion molecule 3) | -0.79 | inactive
KIRREL3 (kirre like nephrin family adhesion molecule 3) | -0.38 | inactive
KIRREL3 (kirre like nephrin family adhesion molecule 3) | -0.53 | inactive
KIRREL3 (kirre like nephrin family adhesion molecule 3) | -0.57 | inactive
EIF2S1 (eukaryotic translation initiation factor 2 subunit alpha) | -1.39 | inactive
EIF2S1 (eukaryotic translation initiation factor 2 subunit alpha) | -1.55 | active
EIF2S1 (eukaryotic translation initiation factor 2 subunit alpha) | -1.35 | inactive
EIF2S1 (eukaryotic translation initiation factor 2 subunit alpha) | -0.74 | inactive
COX11 (cytochrome c oxidase copper chaperone COX11) | 1.07 | inactive
COX11 (cytochrome c oxidase copper chaperone COX11) | 11 | active
COX11 (cytochrome c oxidase copper chaperone COX11) | 2.17 | inactive
COX11 (cytochrome c oxidase copper chaperone COX11) | 0.61 | inactive
HBM (hemoglobin subunit mu) | 0.93 | inactive
HBM (hemoglobin subunit mu) | 0.17 | inactive
HBM (hemoglobin subunit mu) | 0.91 | inactive
HBM (hemoglobin subunit mu) | 0.04 | inactive
SLC52A3 | 0.81 | inactive
SLC52A3 | 1.51 | inactive
SLC52A3 | -0.24 | inactive
SLC52A3 | 0.7 | inactive
TEX55 (testis expressed 55) | -0.74 | inactive
TEX55 (testis expressed 55) | -0.3 | inactive
TEX55 (testis expressed 55) | -0.51 | inactive
TEX55 (testis expressed 55) | -0.35 | inactive
TMEM202 (transmembrane protein 202) | 0 | inactive
TMEM202 (transmembrane protein 202) | -0.27 | inactive
TMEM202 (transmembrane protein 202) | 0.12 | inactive
TMEM202 (transmembrane protein 202) | -0.39 | inactive
PIAS3 (protein inhibitor of activated STAT 3) | -0.35 | inactive
PIAS3 (protein inhibitor of activated STAT 3) | 0.49 | inactive
PIAS3 (protein inhibitor of activated STAT 3) | 0.21 | inactive
PIAS3 (protein inhibitor of activated STAT 3) | 0.99 | inactive
STK25 (serine/threonine kinase 25) | 1.53 | inactive
STK25 (serine/threonine kinase 25) | 0.86 | inactive
STK25 (serine/threonine kinase 25) | 1.71 | inactive
STK25 (serine/threonine kinase 25) | 2.12 | inactive
PFKFB4 (6-phosphofructo-2-kinase/fructose-2,6-biphosphatase 4) | -1.12 | inactive
PFKFB4 (6-phosphofructo-2-kinase/fructose-2,6-biphosphatase 4) | -0.19 | inactive
PFKFB4 (6-phosphofructo-2-kinase/fructose-2,6-biphosphatase 4) | 0.16 | inactive
PFKFB4 (6-phosphofructo-2-kinase/fructose-2,6-biphosphatase 4) | -0.34 | inactive
